Test results reported in article doi:10.1101/2020.07.05.188557.
These are yes or no findings as the source states them, for the method shown. In cells and extracts the contact can be indirect. Some entries that bind do so weakly or less than the wild type. Where a sequence is shown, tags or fusion partners need not be part of it.

Molecular target: T1, Gal2-Cub-GST-6xHA (S. cerevisiae) (UniProt P13181)
T1 sequence: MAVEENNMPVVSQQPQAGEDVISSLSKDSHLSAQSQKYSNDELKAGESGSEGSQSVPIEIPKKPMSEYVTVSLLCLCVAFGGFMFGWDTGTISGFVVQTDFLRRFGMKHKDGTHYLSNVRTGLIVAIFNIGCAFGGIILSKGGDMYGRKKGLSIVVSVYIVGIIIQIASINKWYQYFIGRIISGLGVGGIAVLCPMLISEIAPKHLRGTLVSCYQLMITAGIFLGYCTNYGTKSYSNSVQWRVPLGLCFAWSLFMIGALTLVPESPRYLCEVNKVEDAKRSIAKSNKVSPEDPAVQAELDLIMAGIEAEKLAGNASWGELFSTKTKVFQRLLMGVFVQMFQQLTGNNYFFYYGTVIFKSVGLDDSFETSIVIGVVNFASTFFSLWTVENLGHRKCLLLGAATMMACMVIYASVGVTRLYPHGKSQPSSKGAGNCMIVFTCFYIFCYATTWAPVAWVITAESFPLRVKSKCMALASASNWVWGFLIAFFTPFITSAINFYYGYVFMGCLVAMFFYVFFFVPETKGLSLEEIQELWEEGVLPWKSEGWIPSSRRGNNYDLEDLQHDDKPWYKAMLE
Experiment: split reporter

binding: binds weakly
B1: Shr3-NubA (protein, UniProt Q02774 1-210)
chain: MFSYSDFCSIGTAMILSATTFLMGVFFSNMPYDYHLLFNPNSTQEHFDLALRHYQILHETPLPVIVTLCVVAGIGLVGGTIKVFKPNPELQMFEYCSLGLYVLAICVFLTNVKTGIDCSVSHNWGEVTENQGLAVIASSNIILLVMFAGVIILQIGLWYSNWDLQKRLKEFYAQEEREAANAGKKTEKVDNAKKNDNKSKGAQKRKNAKK
